From PubChem BioAssay AID587 (National Center for Advancing Translational Sciences (NCATS), 2007)
About 35 (0.06%) of roughly 59,000 compounds were called active. The shares of active, inactive and inconclusive entries below differ from those in the screen. No stated cut-off is given here; in the data, active means max dye-equivalent concentration above about 10 nM; inconclusive means between about 1.1 nM and that limit; inactive means weaker than that.

Assay: qHTS Assay for Spectroscopic Profiling in Texas Red Spectral Region
Conditions: Compound fluorescence, Texas Red channel, 547/618 nm; hits give high values
In short: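 Texas Red-region profiling: compounds in 100 mM Tris pH 8.0 were read at 547/618 nm after 15 min at room temperature. Intensities were normalized against a six-point Texas Red standard series to give dye-equivalent concentration.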

Row | SMILES | max dye-equivalent concentration
1 | CCCCn1c(O)c(C(C)=Nc2ccc(C(=O)O)cc2)c(=O)[nH]c1=O | inconclusive: 2.1 nM
2 | CCN(CC)c1ccc(N=Cc2c(O)n(CCC3=CCCCC3)c(=O)[nH]c2=O)cc1 | inactive
3 | CN[C@H]1[C@H]2[C@H]3CCN2C[C@@H]1O3 | inactive
4 | C[C@@]12CC[C@H](O)C[C@@H]1CC[C@H]1[C@@H]2C[C@@H](O)[C@]2(C)[C@@H](C3=CC(=O)OC3)CC[C@]12O | inconclusive: 1.1 nM
5 | N#C/C(=C\c1ccc(O)c(O)c1)C(N)=S | inconclusive: 1.5 nM
6 | CCCCn1c(O)c(C(CC)=Nc2cccc(C(=O)O)c2)c(=O)[nH]c1=O | inconclusive: 1.1 nM
7 | COc1cc2c3cc1Oc1cc(ccc1O)C[C@@H]1c4c(cc(OC)c(O)c4Oc4cccc(c4)C[C@H]3N(C)CC2)CC[N+]1(C)C | inconclusive: 1.1 nM
8 | Cn1c(C(=O)N2CCC(C(=O)N3CCC4(CC3)OCCO4)CC2)cc2sccc21 | inconclusive: 2.2 nM
9 | COC(=O)C(C)Oc1cc(C)cc2oc(=O)c3c(c12)CCCC3 (stereo unspecified) | inconclusive: 2.3 nM
10 | CCN1C[C@@]2(COC)[C@H](O)C[C@H](OC)[C@@]34[C@@H]5C[C@@]6(O)[C@H](OC(=O)c7ccccc7)[C@H]5[C@@](OC(C)=O)([C@H]([C@@H](OC)[C@H]23)[C@H]14)[C@H](O)[C@@H]6OC | inconclusive: 1.1 nM
11 | COc1ccc(S(=O)(=O)Cc2ccc(C(=O)N3CCC4(CC3)OCCO4)o2)cc1 | inconclusive: 1.2 nM
12 | C[C@@H](O)CN(CCN(C[C@@H](C)O)C[C@@H](C)O)C[C@@H](C)O.O=[N+]([O-])O.[Cu] | inactive
13 | NN=C(N)N | inconclusive: 1.1 nM
14 | CC(C)OCCCNC(=O)c1c(N)n(Cc2cccs2)c2nc3ccccc3nc12 | inconclusive: 1.1 nM
15 | COc1cc2c(cc1O)CCN[C@H]2C | inactive
16 | CN1CCN(c2c[nH]c(=O)[nH]c2=O)CC1 | inconclusive: 1.5 nM
17 | CC(C)c1ccc(OCC(=O)N2CCN(C)CC2)c(Br)c1 | inconclusive: 1.2 nM
18 | OC(c1ccccc1)(c1ccccc1)C1CCNCC1 | inconclusive: 1.7 nM
19 | CC(=O)OCC(=O)[C@@H]1CC[C@H]2[C@H]3CC[C@H]4C[C@@H](O)CC[C@]4(C)[C@@H]3C(=O)C[C@@]12C | inconclusive: 1.2 nM
20 | CC(C)=CCSc1nnc([C@@H](N)Cc2c[nH]c3ccccc23)o1 | inconclusive: 1.8 nM
21 | O=C1NCN(c2ccccc2)C12CCN(C[C@H]1COc3ccccc3O1)CC2 | inconclusive: 1.4 nM

Pulled one by one from the list above, 2 records:
Row | SMILES | max dye-equivalent concentration
15 | COc1cc2c(cc1O)CCN[C@H]2C | inactive
3 | CN[C@H]1[C@H]2[C@H]3CCN2C[C@@H]1O3 | inactive
